Reference: PubChem BioAssay AID1259308 (NCATS, 2017)
The deposit covers about 59,000 reagents; below is a random part of them. Of all reagents, about 1,510 (2.6%) got an active call. 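Calls use total luciferase alone and ignore viability, so some active siRNAs may act by altering cell number.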 Reagents against one gene are numbered here. Not all columns of the deposit are shown.

- Aim: 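Candidate targets for better recombinant protein yield in mammalian cells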 (primary screen)
- Cell system: human HEK293 embryonic kidney cells stably expressing firefly luciferase (HEK-CMV-Luc2-Hygro)
- Reagents: single siRNA against human genes, 0.8 pmol siRNA per well
- Timing: 72 h
- Measured: 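Luciferase light (ONE-Glo) measured on one replicate plate set and viability (CellTiter-Glo) on the other, scaled to a negative control siRNA, with robust z-scores and luciferase per cell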
- Scale: total luciferase, z-score and total luciferase, % of control: higher = more reporter protein produced
- Rule for the call: 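An siRNA counts as active if its total luciferase robust z-score exceeds 3; genes with two or more such siRNAs out of three were retested with fresh siRNAs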
- Meaning of the calls: active = raised luciferase; inactive = no rise

After knock-down of SLC35B1 (GeneID 10237) #1, the record shows total luciferase, z-score 1.32; total luciferase, % of control 108; inactive. With knock-down of SLC35B1 (GeneID 10237) #2, the screen gave total luciferase, z-score -0.33; total luciferase, % of control 75.3; inactive. SLC35B1 (GeneID 10237) #3 gave total luciferase, z-score 1.63; total luciferase, % of control 114; inactive. COL4A6 (GeneID 1288) #1 scored total luciferase, z-score -0.928; total luciferase, % of control 63.4; inactive. Against COL4A6 (GeneID 1288) #2, the entry reads total luciferase, z-score -0.0447; total luciferase, % of control 81; inactive. Against COL4A6 (GeneID 1288) #3, the values are total luciferase, z-score -0.582; total luciferase, % of control 70.3; inactive.

Silencing of CNOT10 (GeneID 25904) #1 resulted in: total luciferase, z-score -0.581; total luciferase, % of control 70.3; inactive. Against CNOT10 (GeneID 25904) #2 the deposit lists total luciferase, z-score 0.0278; total luciferase, % of control 82.4; inactive. Against CNOT10 (GeneID 25904) #3, the values are total luciferase, z-score -2.09; total luciferase, % of control 40.3; inactive. OR8S1 (GeneID 341568) #1 gave total luciferase, z-score -1.44; total luciferase, % of control 53.3; inactive. Depletion of OR8S1 (GeneID 341568) #2 came out at: total luciferase, z-score -0.681; total luciferase, % of control 68.3; inactive. Silencing of OR8S1 (GeneID 341568) #3 gave: total luciferase, z-score 2.4; total luciferase, % of control 130; inactive.

Against PFAS (GeneID 5198) #1, the values are total luciferase, z-score -0.274; total luciferase, % of control 76.4; inactive. Knock-down of PFAS (GeneID 5198) #2 came out at: total luciferase, z-score -0.74; total luciferase, % of control 67.2; inactive. PFAS (GeneID 5198) #3 scored total luciferase, z-score -0.93; total luciferase, % of control 63.4; inactive. Against MEN1 (GeneID 4221) #1, the values are total luciferase, z-score -0.411; total luciferase, % of control 73.7; inactive. For MEN1 (GeneID 4221) #2, the entry reads total luciferase, z-score -0.125; total luciferase, % of control 79.4; inactive. Knock-down of MEN1 (GeneID 4221) #3 came out at: total luciferase, z-score 2.07; total luciferase, % of control 123; inactive.

Depletion of PI15 (GeneID 51050) #1 resulted in: total luciferase, z-score 0.373; total luciferase, % of control 89.3; inactive. After knock-down of PI15 (GeneID 51050) #2, the screen gave total luciferase, z-score -0.279; total luciferase, % of control 76.3; inactive. PI15 (GeneID 51050) #3 gave total luciferase, z-score 1.81; total luciferase, % of control 118; inactive.

A run of entries from the list above, as a working copy:
MEN1 (GeneID 4221) #1 → total luciferase, z-score: -0.411; total luciferase, % of control: 73.7; activity call: inactive
MEN1 (GeneID 4221) #2 → total luciferase, z-score: -0.125; total luciferase, % of control: 79.4; activity call: inactive
MEN1 (GeneID 4221) #3 → total luciferase, z-score: 2.07; total luciferase, % of control: 123; activity call: inactive
